Here are results for one substance from article PMC9346486.

Protein sequences, listed by entry. Tags and fused reporters are not part of them.
UniProt P08670: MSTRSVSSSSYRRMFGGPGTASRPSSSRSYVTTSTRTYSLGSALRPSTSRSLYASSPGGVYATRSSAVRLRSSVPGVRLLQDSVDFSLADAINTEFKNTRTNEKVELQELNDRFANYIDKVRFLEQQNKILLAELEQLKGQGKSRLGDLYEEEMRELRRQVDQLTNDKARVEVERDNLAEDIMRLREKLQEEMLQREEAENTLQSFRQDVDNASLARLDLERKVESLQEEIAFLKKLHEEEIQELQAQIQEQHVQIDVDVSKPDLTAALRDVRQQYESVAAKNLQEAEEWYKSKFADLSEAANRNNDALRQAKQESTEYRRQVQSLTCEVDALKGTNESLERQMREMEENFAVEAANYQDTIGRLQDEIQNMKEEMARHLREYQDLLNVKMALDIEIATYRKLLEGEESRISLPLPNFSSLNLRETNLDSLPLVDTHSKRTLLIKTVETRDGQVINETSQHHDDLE
UniProt O14744: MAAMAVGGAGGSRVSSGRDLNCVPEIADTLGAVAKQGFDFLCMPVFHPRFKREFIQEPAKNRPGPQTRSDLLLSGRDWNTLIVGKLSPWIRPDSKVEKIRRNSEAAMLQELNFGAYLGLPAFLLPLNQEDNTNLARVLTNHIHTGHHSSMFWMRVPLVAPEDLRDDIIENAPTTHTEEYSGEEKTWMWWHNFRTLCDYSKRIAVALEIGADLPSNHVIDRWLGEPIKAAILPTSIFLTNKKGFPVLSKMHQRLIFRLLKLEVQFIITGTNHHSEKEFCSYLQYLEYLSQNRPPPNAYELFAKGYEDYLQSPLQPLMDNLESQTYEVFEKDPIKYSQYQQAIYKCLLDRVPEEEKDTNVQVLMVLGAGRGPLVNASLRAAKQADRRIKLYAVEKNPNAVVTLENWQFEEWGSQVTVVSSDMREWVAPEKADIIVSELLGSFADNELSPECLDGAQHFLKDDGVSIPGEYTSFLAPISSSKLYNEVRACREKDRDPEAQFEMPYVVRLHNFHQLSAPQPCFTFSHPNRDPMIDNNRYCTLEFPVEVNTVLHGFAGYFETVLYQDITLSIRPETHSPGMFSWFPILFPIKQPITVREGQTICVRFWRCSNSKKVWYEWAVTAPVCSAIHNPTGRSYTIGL

These are yes or no findings as the source states them, for the method shown. In cells and extracts the contact can be indirect. Some binding calls cover weakened binding; strength is not graded here.

The assay has as its target vimentin (human (endogenous in CL1-5)) (UniProt P08670). As to the kind of experiment: co-IP; endogenous proteins from lysates of CL1-5 Mock and MTAP-overexpressing cells; lysis buffer 50 mM Tris-HCl pH 7.4, 1% NP-40, 150 mM NaCl, 1 mM EDTA; Protein A/G PLUS-Agarose beads; Western blot; the precipitating antibody is not given. Background: Immunoblotting shows a protein as a band on a membrane.

As for “protein arginine methyltransferase 5 (from UniProt O14744 1-637) (enzyme)”, the binding result is reported as “binds”.
